Test results published in PMC4559392.
No constants are given. Whether binding was seen depends on the method and setting. In cells and extracts the contact can be indirect. A result given as binding can be weak or reduced; the word gives no strength.

Sequences of proteins named here, by UniProt entry; tags and fusion partners are left off. A change or cut given only in a name is not applied to a line headed by its entry.
UniProt P18431: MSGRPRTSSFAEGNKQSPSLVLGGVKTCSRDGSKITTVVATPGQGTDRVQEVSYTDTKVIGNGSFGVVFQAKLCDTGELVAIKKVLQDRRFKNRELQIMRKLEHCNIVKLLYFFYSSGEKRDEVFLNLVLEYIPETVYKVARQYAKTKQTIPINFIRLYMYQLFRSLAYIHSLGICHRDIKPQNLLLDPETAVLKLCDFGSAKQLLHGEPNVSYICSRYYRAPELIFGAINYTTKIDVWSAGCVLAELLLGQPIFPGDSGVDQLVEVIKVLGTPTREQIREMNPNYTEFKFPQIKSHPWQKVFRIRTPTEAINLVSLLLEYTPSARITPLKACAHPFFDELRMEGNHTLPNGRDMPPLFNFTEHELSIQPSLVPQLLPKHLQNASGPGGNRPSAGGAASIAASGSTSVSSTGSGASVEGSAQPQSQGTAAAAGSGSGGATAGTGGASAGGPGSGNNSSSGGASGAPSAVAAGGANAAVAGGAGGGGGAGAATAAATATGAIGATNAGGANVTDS
UniProt P51592: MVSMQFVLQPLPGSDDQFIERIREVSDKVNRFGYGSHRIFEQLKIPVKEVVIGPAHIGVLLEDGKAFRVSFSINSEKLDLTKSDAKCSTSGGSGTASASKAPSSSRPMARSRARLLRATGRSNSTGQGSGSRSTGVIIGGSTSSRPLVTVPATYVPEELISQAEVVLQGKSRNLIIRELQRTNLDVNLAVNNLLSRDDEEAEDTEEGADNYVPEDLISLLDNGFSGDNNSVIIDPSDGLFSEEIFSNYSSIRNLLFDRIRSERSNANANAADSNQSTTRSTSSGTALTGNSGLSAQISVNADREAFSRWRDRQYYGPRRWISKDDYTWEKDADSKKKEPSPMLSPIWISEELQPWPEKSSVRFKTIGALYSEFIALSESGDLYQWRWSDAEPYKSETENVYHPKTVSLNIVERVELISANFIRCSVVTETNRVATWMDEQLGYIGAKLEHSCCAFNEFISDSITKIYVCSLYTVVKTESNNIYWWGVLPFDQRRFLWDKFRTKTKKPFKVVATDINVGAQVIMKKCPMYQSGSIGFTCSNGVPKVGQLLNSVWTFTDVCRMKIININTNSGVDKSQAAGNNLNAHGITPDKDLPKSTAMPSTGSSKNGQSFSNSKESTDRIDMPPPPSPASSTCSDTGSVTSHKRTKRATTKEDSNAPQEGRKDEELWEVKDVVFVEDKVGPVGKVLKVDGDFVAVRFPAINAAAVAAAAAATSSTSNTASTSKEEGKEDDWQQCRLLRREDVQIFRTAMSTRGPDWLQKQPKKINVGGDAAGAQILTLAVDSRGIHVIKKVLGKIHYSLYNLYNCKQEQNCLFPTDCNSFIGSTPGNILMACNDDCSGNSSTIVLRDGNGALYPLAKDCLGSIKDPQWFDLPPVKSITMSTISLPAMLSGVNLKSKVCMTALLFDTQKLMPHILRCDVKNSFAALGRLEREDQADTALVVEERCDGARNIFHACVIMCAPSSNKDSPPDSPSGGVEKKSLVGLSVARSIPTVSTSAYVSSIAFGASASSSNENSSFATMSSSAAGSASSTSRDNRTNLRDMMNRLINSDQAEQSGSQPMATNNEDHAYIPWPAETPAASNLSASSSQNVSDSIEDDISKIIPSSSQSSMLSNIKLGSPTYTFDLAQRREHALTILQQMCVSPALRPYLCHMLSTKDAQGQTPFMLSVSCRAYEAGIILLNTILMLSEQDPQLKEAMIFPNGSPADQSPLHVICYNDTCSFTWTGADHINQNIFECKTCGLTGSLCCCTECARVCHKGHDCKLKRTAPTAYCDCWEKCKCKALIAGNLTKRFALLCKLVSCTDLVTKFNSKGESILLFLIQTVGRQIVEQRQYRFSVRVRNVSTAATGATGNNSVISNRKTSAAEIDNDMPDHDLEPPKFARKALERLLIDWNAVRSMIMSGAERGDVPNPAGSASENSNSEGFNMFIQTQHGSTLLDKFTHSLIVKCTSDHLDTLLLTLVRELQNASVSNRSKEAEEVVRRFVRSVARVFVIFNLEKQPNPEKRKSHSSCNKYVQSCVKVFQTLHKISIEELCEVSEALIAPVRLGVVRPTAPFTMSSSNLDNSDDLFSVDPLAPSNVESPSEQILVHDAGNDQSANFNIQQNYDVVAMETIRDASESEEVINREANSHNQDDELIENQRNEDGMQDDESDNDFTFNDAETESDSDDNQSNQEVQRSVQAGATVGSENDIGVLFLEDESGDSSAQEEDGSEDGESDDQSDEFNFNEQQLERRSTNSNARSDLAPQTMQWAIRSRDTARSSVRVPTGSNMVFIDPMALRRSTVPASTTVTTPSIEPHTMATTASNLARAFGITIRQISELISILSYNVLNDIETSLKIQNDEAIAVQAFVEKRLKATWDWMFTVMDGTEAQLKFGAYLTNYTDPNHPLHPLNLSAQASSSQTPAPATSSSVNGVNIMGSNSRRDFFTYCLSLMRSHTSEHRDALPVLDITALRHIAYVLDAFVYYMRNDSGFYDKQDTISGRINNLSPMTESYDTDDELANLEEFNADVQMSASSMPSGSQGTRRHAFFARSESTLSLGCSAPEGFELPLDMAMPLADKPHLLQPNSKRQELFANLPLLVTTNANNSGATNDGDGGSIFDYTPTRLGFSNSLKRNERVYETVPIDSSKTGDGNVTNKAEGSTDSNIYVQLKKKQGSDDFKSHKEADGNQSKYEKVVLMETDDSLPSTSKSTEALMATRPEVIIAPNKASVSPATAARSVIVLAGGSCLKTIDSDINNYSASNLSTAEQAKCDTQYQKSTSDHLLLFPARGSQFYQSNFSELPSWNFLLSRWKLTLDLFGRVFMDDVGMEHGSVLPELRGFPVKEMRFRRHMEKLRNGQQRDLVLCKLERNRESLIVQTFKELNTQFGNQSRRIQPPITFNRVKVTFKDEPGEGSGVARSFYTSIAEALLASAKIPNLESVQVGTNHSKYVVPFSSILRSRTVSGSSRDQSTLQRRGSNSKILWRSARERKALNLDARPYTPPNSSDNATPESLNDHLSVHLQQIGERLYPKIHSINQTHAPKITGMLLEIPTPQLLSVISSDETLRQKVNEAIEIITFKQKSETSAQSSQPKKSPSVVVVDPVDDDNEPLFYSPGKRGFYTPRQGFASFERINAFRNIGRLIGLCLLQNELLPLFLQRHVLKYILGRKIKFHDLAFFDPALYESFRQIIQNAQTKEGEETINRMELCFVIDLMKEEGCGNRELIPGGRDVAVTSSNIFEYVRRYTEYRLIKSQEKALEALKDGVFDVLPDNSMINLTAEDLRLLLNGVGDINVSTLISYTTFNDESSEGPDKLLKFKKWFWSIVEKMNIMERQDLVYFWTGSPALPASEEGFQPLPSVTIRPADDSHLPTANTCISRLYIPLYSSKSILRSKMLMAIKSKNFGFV

Target: Sgg-FLAG (Shaggy, the Drosophila GSK3β homologue) (Drosophila melanogaster) (UniProt P18431)
Test: co-IP; S2 cells co-transfected with hyd (mutant) and sgg-FLAG constructs; FLAG-affinity purified complexes analysed by Western blot

binding: binds
Substance: Hyd PABC^mt (Y2509A+C2527A) (from UniProt P51592)
